Binding data for 15 molecules are collected here from paper PMC8027484.

By UniProt entry, the sequences of proteins in these tests, tags left out.
UniProt P30613: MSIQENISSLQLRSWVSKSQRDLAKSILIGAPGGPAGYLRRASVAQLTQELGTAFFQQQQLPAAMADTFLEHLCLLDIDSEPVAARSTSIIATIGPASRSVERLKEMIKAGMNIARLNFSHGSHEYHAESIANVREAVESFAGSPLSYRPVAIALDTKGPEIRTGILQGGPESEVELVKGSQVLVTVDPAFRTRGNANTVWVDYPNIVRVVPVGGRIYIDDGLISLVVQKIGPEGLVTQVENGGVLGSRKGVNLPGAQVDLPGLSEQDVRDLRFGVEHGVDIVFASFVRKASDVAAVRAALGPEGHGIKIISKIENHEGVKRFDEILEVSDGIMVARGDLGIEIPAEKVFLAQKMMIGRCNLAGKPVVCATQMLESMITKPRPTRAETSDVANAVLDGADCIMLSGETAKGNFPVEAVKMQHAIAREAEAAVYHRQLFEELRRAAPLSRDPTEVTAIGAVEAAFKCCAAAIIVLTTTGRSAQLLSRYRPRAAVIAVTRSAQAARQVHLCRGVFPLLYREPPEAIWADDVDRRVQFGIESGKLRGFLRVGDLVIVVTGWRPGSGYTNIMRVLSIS
UniProt Q14240: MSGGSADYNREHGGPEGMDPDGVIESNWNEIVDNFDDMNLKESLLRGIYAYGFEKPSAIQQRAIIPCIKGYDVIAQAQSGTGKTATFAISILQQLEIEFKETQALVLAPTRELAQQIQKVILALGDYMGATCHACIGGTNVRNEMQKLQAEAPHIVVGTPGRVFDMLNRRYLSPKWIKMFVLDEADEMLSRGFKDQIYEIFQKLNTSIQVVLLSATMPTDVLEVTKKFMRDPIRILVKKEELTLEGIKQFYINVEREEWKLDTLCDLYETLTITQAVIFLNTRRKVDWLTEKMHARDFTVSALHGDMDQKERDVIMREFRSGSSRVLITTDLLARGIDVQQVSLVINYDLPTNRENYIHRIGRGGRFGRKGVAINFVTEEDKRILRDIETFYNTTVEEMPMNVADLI
UniProt Q92973: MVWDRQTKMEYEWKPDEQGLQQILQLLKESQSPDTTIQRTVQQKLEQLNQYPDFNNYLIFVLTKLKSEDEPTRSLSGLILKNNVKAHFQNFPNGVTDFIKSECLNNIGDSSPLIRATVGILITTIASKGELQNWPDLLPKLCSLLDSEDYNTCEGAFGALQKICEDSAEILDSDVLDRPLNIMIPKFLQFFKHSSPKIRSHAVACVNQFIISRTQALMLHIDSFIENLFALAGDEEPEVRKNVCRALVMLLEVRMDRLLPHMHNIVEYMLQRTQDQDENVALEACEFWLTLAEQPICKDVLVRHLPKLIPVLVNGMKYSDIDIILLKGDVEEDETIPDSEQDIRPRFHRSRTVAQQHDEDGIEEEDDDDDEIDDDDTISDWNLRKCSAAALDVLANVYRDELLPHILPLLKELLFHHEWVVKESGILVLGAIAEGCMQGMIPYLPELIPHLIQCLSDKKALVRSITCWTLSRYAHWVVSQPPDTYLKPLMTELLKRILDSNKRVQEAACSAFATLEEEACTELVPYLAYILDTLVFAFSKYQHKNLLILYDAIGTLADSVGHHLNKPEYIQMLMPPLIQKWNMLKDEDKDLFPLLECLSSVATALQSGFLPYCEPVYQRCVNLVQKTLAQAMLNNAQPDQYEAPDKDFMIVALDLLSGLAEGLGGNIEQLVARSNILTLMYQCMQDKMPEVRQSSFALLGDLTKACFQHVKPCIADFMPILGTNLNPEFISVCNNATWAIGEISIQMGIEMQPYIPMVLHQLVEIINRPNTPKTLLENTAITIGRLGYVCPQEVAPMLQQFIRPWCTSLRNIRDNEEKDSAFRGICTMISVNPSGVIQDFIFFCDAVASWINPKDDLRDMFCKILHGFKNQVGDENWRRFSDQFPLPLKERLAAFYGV
UniProt P55060: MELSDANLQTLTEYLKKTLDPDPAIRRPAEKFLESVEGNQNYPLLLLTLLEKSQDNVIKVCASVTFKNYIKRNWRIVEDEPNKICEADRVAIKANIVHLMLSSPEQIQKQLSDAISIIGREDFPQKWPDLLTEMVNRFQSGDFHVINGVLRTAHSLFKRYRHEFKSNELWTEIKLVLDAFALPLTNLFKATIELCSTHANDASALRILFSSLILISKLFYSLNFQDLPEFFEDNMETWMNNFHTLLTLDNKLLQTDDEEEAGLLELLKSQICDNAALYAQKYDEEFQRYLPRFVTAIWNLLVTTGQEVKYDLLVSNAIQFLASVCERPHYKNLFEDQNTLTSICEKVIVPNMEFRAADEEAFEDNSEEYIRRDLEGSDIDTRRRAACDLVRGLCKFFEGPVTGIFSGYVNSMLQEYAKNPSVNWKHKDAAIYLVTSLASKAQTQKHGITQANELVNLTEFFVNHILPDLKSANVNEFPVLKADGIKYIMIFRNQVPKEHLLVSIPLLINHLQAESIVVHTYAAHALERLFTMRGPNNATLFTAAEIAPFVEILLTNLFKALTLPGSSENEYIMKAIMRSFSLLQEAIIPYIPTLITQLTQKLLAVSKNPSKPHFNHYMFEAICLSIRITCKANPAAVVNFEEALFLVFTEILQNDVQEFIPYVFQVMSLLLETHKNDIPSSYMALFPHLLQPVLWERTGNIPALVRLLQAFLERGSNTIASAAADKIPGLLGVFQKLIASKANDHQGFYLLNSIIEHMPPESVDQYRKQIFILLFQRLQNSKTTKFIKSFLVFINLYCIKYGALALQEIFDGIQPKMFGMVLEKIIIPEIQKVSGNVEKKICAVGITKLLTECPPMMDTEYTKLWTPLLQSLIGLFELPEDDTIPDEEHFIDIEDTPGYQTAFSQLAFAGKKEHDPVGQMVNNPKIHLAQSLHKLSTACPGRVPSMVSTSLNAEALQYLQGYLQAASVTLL
UniProt P61619: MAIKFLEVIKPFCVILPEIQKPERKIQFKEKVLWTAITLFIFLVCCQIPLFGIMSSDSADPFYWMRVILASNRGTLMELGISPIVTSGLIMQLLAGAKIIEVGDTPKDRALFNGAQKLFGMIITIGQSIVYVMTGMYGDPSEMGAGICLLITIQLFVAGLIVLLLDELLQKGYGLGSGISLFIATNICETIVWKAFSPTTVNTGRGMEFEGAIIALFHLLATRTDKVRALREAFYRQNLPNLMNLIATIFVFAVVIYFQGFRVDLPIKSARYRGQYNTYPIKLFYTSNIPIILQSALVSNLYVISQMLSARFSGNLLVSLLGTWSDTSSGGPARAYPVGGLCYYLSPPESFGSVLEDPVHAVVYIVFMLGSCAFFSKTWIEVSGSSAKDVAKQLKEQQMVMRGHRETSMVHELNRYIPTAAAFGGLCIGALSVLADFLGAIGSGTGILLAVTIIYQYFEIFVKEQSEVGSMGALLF
UniProt Q96F07: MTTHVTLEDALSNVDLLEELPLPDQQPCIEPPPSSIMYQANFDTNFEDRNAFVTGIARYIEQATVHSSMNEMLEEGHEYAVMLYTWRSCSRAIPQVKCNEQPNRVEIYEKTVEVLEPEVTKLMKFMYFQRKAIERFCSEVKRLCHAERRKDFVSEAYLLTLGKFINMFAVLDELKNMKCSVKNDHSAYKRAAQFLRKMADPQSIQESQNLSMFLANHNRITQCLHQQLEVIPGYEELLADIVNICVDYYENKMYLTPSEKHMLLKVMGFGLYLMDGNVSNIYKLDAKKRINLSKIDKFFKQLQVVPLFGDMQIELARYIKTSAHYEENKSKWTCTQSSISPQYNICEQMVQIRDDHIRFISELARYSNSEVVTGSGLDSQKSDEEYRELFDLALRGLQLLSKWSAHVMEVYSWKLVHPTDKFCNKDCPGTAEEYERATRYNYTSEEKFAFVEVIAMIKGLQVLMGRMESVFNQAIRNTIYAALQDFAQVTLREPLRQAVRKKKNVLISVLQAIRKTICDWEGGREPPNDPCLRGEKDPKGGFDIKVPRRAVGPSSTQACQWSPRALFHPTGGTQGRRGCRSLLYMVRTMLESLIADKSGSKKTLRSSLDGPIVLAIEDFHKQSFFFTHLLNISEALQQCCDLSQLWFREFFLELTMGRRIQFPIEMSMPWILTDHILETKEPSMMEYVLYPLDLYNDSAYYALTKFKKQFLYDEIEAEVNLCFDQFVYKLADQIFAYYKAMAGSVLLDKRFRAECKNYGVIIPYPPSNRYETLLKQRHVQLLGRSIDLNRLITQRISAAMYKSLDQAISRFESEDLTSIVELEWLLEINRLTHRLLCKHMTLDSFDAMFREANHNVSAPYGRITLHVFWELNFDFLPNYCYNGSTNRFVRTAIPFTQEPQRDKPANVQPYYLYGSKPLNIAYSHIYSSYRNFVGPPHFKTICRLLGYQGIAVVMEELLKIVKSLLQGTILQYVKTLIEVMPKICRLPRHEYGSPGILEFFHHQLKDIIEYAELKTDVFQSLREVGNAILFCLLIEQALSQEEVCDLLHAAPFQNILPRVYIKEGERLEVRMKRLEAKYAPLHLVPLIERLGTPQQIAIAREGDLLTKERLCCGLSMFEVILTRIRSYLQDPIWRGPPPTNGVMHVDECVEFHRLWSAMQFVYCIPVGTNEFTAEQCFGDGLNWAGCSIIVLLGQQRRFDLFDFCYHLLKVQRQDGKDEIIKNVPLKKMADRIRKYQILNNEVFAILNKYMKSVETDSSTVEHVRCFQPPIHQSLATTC
UniProt P47756: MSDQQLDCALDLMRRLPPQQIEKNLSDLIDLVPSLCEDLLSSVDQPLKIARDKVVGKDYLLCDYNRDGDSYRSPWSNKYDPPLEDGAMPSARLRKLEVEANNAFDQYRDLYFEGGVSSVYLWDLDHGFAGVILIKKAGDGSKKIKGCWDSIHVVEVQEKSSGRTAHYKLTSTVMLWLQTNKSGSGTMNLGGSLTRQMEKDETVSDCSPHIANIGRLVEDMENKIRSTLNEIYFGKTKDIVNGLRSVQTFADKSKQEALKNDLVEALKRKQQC

The target of the test is T1, 3×Flag-tagged-FLVCR1 (feline leukemia virus subgroup C receptor 1) (UniProt Q9Y5Y0).
T1 sequence: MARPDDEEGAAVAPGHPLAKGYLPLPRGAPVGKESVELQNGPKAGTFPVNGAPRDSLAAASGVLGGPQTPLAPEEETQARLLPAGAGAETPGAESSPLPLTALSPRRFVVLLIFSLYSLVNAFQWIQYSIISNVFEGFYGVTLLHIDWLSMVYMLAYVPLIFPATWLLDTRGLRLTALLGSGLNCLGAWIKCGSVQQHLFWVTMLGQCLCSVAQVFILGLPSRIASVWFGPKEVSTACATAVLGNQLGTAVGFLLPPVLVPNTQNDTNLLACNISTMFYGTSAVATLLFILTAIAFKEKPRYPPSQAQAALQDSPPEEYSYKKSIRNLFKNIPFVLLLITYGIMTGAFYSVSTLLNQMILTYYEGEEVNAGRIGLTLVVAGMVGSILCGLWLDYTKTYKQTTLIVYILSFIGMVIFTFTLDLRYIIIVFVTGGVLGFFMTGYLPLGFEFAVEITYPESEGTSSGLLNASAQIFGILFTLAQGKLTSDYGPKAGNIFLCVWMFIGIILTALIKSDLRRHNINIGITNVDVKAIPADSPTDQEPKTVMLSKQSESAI
Put plainly: affinity purification with mass spectrometry; lysates of KYSE-150 cells stably expressing 3×Flag-tagged FLVCR1 (OE) or control (NC); anti-FLAG beads, eluted with 3×FLAG peptide, SDS-PAGE with Coomassie staining, bands digested with trypsin, LC-MS; proteins detected in the OE group.

Results are given in words; binding and its absence hold for the method and conditions named. Binding seen in cells or lysates may run through a third protein. These calls come from enrichment with a bait or labelling near it, and not all partners need be listed. Where a sequence is shown, tags or fusion partners need not be part of it.

For PKLR (from UniProt P30613 1-574), the binding entry is listed as “binds”.

On to EIF4A2 (from UniProt Q14240 1-407), for which the binding entry is “binds”.

Turning to TNPO1 (from UniProt Q92973 1-898), the binding result is “binds”.

In the case of “chromosome segregation 1–like (CSE1L) (from UniProt P55060 1-971)”, the binding result is “binds”.

With SEC61A1 (from UniProt P61619 1-476), the binding result is given as “binds”.

In the case of CYFIP2 (from UniProt Q96F07 1-1278), the binding entry is listed as “binds”.

CAPZB (from UniProt P47756 1-272): the binding entry is “binds”.

B1: HK1 (protein, UniProt P19367 1-917)
chain: MIAAQLLAYYFTELKDDQVKKIDKYLYAMRLSDETLIDIMTRFRKEMKNGLSRDFNPTATVKMLPTFVRSIPDGSEKGDFIALDLGGSSFRILRVQVNHEKNQNVHMESEVYDTPENIVHGSGSQLFDHVAECLGDFMEKRKIKDKKLPVGFTFSFPCQQSKIDEAILITWTKRFKASGVEGADVVKLLNKAIKKRGDYDANIVAVVNDTVGTMMTCGYDDQHCEVGLIIGTGTNACYMEELRHIDLVEGDEGRMCINTEWGAFGDDGSLEDIRTEFDREIDRGSLNPGKQLFEKMVSGMYLGELVRLILVKMAKEGLLFEGRITPELLTRGKFNTSDVSAIEKNKEGLHNAKEILTRLGVEPSDDDCVSVQHVCTIVSFRSANLVAATLGAILNRLRDNKGTPRLRTTVGVDGSLYKTHPQYSRRFHKTLRRLVPDSDVRFLLSESGSGKGAAMVTAVAYRLAEQHRQIEETLAHFHLTKDMLLEVKKRMRAEMELGLRKQTHNNAVVKMLPSFVRRTPDGTENGDFLALDLGGTNFRVLLVKIRSGKKRTVEMHNKIYAIPIEIMQGTGEELFDHIVSCISDFLDYMGIKGPRMPLGFTFSFPCQQTSLDAGILITWTKGFKATDCVGHDVVTLLRDAIKRREEFDLDVVAVVNDTVGTMMTCAYEEPTCEVGLIVGTGSNACYMEEMKNVEMVEGDQGQMCINMEWGAFGDNGCLDDIRTHYDRLVDEYSLNAGKQRYEKMISGMYLGEIVRNILIDFTKKGFLFRGQISETLKTRGIFETKFLSQIESDRLALLQVRAILQQLGLNSTCDDSILVKTVCGVVSRRAAQLCGAGMAAVVDKIRENRGLDRLNVTVGVDGTLYKLHPHFSRIMHQTVKELSPKCNVSFLLSEDGSGKGAALITAVGVRLRTEASS
Turning to B1, the binding result is “binds”.

B2: DDX47 (protein, UniProt Q9H0S4 1-455)
chain: MAAPEEHDSPTEASQPIVEEEETKTFKDLGVTDVLCEACDQLGWTKPTKIQIEAIPLALQGRDIIGLAETGSGKTGAFALPILNALLETPQRLFALVLTPTRELAFQISEQFEALGSSIGVQSAVIVGGIDSMSQSLALAKKPHIIIATPGRLIDHLENTKGFNLRALKYLVMDEADRILNMDFETEVDKILKVIPRDRKTFLFSATMTKKVQKLQRAALKNPVKCAVSSKYQTVEKLQQYYIFIPSKFKDTYLVYILNELAGNSFMIFCSTCNNTQRTALLLRNLGFTAIPLHGQMSQSKRLGSLNKFKAKARSILLATDVASRGLDIPHVDVVVNFDIPTHSKDYIHRVGRTARAGRSGKAITFVTQYDVELFQRIEHLIGKKLPGFPTQDDEVMMLTERVAEAQRFARMELREHGEKKKRSREDAGDNDDTEGAIGVRNKVAGGKMKKRKGR
On to B2, for which the binding result is “binds”.

B3: MDH2 (protein, UniProt P40926 25-338)
chain: AKVAVLGASGGIGQPLSLLLKNSPLVSRLTLYDIAHTPGVAADLSHIETKAAVKGYLGPEQLPDCLKGCDVVVIPAGVPRKPGMTRDDLFNTNATIVATLTAACAQHCPEAMICVIANPVNSTIPITAEVFKKHGVYNPNKIFGVTTLDIVRANTFVAELKGLDPARVNVPVIGGHAGKTIIPLISQCTPKVDFPQDQLTALTGRIQEAGTEVVKAKAGAGSATLSMAYAGARFVFSLVDAMNGKEGVVECSFVKSQETECTYFSTPLLLGKKGIEKNLGIGKVSSFEEKMISDAIPELKASIKKGEDFVKTLK
B3: the binding entry is given as “binds”.

B4: UTP6 (protein, UniProt Q9NYH9 1-597)
chain: MAEIIQERIEDRLPELEQLERIGLFSHAEIKAIIKKASDLEYKIQRRTLFKEDFINYVQYEINLLELIQRRRTRIGYSFKKDEIENSIVHRVQGVFQRASAKWKDDVQLWLSYVAFCKKWATKTRLSKVFSAMLAIHSNKPALWIMAAKWEMEDRLSSESARQLFLRALRFHPECPKLYKEYFRMELMHAEKLRKEKEEFEKASMDVENPDYSEEILKGELAWIIYKNSVSIIKGAEFHVSLLSIAQLFDFAKDLQKEIYDDLQALHTDDPLTWDYVARRELEIESQTEEQPTTKQAKAVEVGRKEERCCAVYEEAVKTLPTEAMWKCYITFCLERFTKKSNSGFLRGKRLERTMTVFRKAHELKLLSECQYKQLSVSLLCYNFLREALEVAVAGTELFRDSGTMWQLKLQVLIESKSPDIAMLFEEAFVHLKPQVCLPLWISWAEWSEGAKSQEDTEAVFKKALLAVIGADSVTLKNKYLDWAYRSGGYKKARAVFKSLQESRPFSVDFFRKMIQFEKEQESCNMANIREYYERALREFGSADSDLWMDYMKEELNHPLGRPENCGQIYWRAMKMLQGESAEAFVAKHAMHQTGHL
Take B4: the binding entry is reported as “binds”.

B5: MDK (protein, UniProt P21741 21-143)
chain: VAKKKDKVKKGGPGSECAEWAWGPCTPSSKDCGVGFREGTCGAQTQRIRCRVPCNWKKEFGADCKYKFENWGACDGGTGTKVRQGTLKKARYNAQCQETIRVTKPCTPKTKAKAKAKKGKGKD
For the molecule B5, the binding result is “binds”.

B6: DSC1 (protein, UniProt Q08554 135-894)
chain: RWAPIPASLMENSLGPFPQHVQQIQSDAAQNYTIFYSISGPGVDKEPFNLFYIEKDTGDIFCTRSIDREKYEQFALYGYATTADGYAPEYPLPLIIKIEDDNDNAPYFEHRVTIFTVPENCRSGTSVGKVTATDLDEPDTLHTRLKYKILQQIPDHPKHFSIHPDTGVITTTTPFLDREKCDTYQLIMEVRDMGGQPFGLFNTGTITISLEDENDNPPSFTETSYVTEVEENRIDVEILRMKVQDQDLPNTPHSKAVYKILQGNENGNFIISTDPNTNEGVLCVVKPLNYEVNRQVILQVGVINEAQFSKAASSQTPTMCTTTVTVKIIDSDEGPECHPPVKVIQSQDGFPAGQELLGYKALDPEISSGEGLRYQKLGDEDNWFEINQHTGDLRTLKVLDRESKFVKNNQYNISVVAVDAVGRSCTGTLVVHLDDYNDHAPQIDKEVTICQNNEDFAVLKPVDPDGPENGPPFQFFLDNSASKNWNIEEKDGKTAILRQRQNLDYNYYSVPIQIKDRHGLVATHMLTVRVCDCSTPSECRMKDKSTRDVRPNVILGRWAILAMVLGSVLLLCILFTCFCVTAKRTVKKCFPEDIAQQNLIVSNTEGPGEEVTEANIRLPMQTSNICDTSMSVGTVGGQGIKTQQSFEMVKGGYTLDSNKGGGHQTLESVKGVGQGDTGRYAYTDWQSFTQPRLGEKVYLCGQDEEHKHCEDYVCSYNYEGKGSLAGSVGCCSDRQEEEGLEFLDHLEPKFRTLAKTCIKK
Take B6: the binding result is given as “binds”.

B7: DLD (protein, UniProt P09622 36-509)
chain: ADQPIDADVTVIGSGPGGYVAAIKAAQLGFKTVCIEKNETLGGTCLNVGCIPSKALLNNSHYYHMAHGKDFASRGIEMSEVRLNLDKMMEQKSTAVKALTGGIAHLFKQNKVVHVNGYGKITGKNQVTATKADGGTQVIDTKNILIATGSEVTPFPGITIDEDTIVSSTGALSLKKVPEKMVVIGAGVIGVELGSVWQRLGADVTAVEFLGHVGGVGIDMEISKNFQRILQKQGFKFKLNTKVTGATKKSDGKIDVSIEAASGGKAEVITCDVLLVCIGRRPFTKNLGLEELGIELDPRGRIPVNTRFQTKIPNIYAIGDVVAGPMLAHKAEDEGIICVEGMAGGAVHIDYNCVPSVIYTHPEVAWVGKSEEQLKEEGIEYKVGKFPFAANSRAKTNADTDGMVKILGQKSTDRVLGAHILGPGAGEMVNEAALALEYGASCEDIARVCHAHPTLSEAFREANLAASFGKSINF
As for B7, the binding entry was “binds”.

B8: PLCD4 (protein, UniProt Q9BRC7 1-762)
chain: MASLLQDQLTTDQDLLLMQEGMPMRKVRSKSWKKLRYFRLQNDGMTVWHARQARGSAKPSFSISDVETIRNGHDSELLRSLAEELPLEQGFTIVFHGRRSNLDLMANSVEEAQIWMRGLQLLVDLVTSMDHQERLDQWLSDWFQRGDKNQDGKMSFQEVQRLLHLMNVEMDQEYAFSLFQAADTSQSGTLEGEEFVQFYKALTKRAEVQELFESFSADGQKLTLLEFLDFLQEEQKERDCTSELALELIDRYEPSDSGKLRHVLSMDGFLSYLCSKDGDIFNPACLPIYQDMTQPLNHYFICSSHNTYLVGDQLCGQSSVEGYIRALKRGCRCVEVDVWDGPSGEPVVYHGHTLTSRILFKDVVATVAQYAFQTSDYPVILSLETHCSWEQQQTMARHLTEILGEQLLSTTLDGVLPTQLPSPEELRRKILVKGKKLTLEEDLEYEEEEAEPELEESELALESQFETEPEPQEQNLQNKDKKKKSKPILCPALSSLVIYLKSVSFRSFTHSKEHYHFYEISSFSETKAKRLIKEAGNEFVQHNTWQLSRVYPSGLRTDSSNYNPQELWNAGCQMVAMNMQTAGLEMDICDGHFRQNGGCGYVLKPDFLRDIQSSFHPEKPISPFKAQTLLIQVISGQQLPKVDKTKEGSIVDPLVKVQIFGVRLDTARQETNYVENNGFNPYWGQTLCFRVLVPELAMLRFVVMDYDWKSRNDFIGQYTLPWTCMQQGYRHIHLLSKDGISLRPASIFVYICIQEGLEGDES
B8: the binding entry was “binds”.
